Assay results published in PubChem BioAssay AID504834 (National Center for Advancing Translational Sciences (NCATS), 2011).
The whole screen tested about 320,000 compounds, of which about 22,000 (6.9%) were called active. Inconclusive means that the source gave no clear call. Such entries were picked first, then a sample of the others. Calls come from the whole dose curve; as a rule, active = well fitted inhibition curve with a large enough effect; inconclusive = small, poorly fitted or top-dose-only effect, or another doubt; inactive = no such curve, though single readings can be large or run the other way. Potencies of inconclusive entries are doubtful fits and often do not repeat.

assay: Primary qHTS for delayed death inhibitors of the malarial parasite plastid, 96 hour incubation; conditions: P. falciparum luciferase reporter growth; series mostly up to 28.7 µM
How it was run: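 P. falciparum expressing integrated firefly luciferase grown in erythrocytes (2% hematocrit, 0.05% parasitemia final) with compounds for 96 hours at 37 C, 5% CO2. Growth inhibition read as loss of luminescence after adding luciferase detection reagent.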
Potency is the fitted concentration of half-maximal effect.

**Q.** With O=C(c1cccc(F)c1)N1CCN(S(=O)(=O)Cc2ccccc2)CC1 as the compound, how does the Potency read?
**A.** The Potency was “inactive”.

**Q.** For COc1cccc(N(C(=O)c2ccco2)C(C(=O)NC2CCCC2)c2ccc(N(C)C)cc2)c1 (stereo not given), which Potency is on record?
**A.** The Potency was “inactive”.

**Q.** Which Potency does the source give for [N-]=[N+]=NC[C@H](Cc1ccccc1)N1CC[C@@H](NC(=O)OCc2ccccc2)CCC1=O here?
**A.** The Potency was inconclusive: 18.5 µM [inhibitor, single point].

**Q.** For O=C(NCc1cc([N+](=O)[O-])ccc1O)c1cccnc1Sc1ccc(Cl)cc1, which Potency is on record?
**A.** Its Potency is inconclusive: 18.5 µM [inhibitor, single point].

**Q.** Which Potency does the source give for Fc1ccc(Cn2nnc3ccccc32)cc1 here?
**A.** The Potency was inconclusive: 9.28 µM [inhibitor, single point].

**Q.** Which Potency does the source give for CC1=C(C(=O)Nc2ccccc2)C(c2ccco2)C(C#N)=C(SCC(=O)Nc2cccc(C)c2C)N1 (stereo not given) here?
**A.** Its Potency is inconclusive: 0.0738 µM [inhibitor, full curve, poor fit].

**Q.** With Cc1ccc2nc(-c3ccc(NC(=O)C(C)N4C(=O)c5ccccc5C4=O)cc3)sc2c1 (stereo not given) as the compound, how does the Potency read?
**A.** Its Potency is “inactive”.

**Q.** With Cc1ccc(CN=c2c([N+](=O)[O-])nn(-c3cccc(Cl)c3)n2O)cc1 as the compound, how does the Potency read?
**A.** Its Potency is inconclusive: 0.0029 µM [inhibitor, full curve, poor fit].

**Q.** Which Potency does the source give for Cc1cc(-c2nnc(SCC(=O)Nc3ccc(Br)cc3F)n2N)n[nH]1 here?
**A.** The Potency was inconclusive: 13.1 µM [inhibitor, single point].

**Q.** For O=C(CN1CCN(c2ccccn2)CC1)Nc1cccc(Br)c1, which Potency is on record?
**A.** Its Potency is “inactive”.

**Q.** With COc1ccc(/C=C2\N=C(SC)N(c3ccccc3OC)C2=O)cc1 as the compound, how does the Potency read?
**A.** Its Potency is inconclusive: 9.28 µM [inhibitor, single point].

**Q.** For O=C1CS/C(=N/N=C2CCCC2)N1, which Potency is on record?
**A.** Its Potency is active: 3.29 µM.

**Q.** With CCN1C(=O)C2C(c3ccccc3F)NC(Cc3ccc(O)cc3)(C(=O)OC)C2C1=O (stereo not given) as the compound, how does the Potency read?
**A.** The Potency was inconclusive: 6.57 µM [inhibitor, partial curve].

**Q.** With O=C(NCc1ccc(F)cc1)C(C(=O)NCc1ccc(F)cc1)c1ncc(C(F)(F)F)cc1Cl as the compound, how does the Potency read?
**A.** Its Potency is inconclusive: 9.28 µM [inhibitor, single point].

**Q.** With Cc1ccc(Cn2c(=N)c(C(=O)NC3CCCCC3)cc3c(=O)n4ccccc4nc32)cc1 as the compound, how does the Potency read?
**A.** Its Potency is active: 2.94 µM.

**Q.** Which Potency does the source give for COc1ccc(/C=N/NC(=O)c2ccccc2F)cc1CN1CCN(c2ccc(F)cc2)CC1 here?
**A.** The Potency was inconclusive: 14.7 µM [inhibitor, partial curve, poor fit].

**Q.** For C=CCOC(=O)C1=C(C)NC(=O)NC1c1cn(-c2ccccc2)nc1-c1cccs1 (stereo not given), which Potency is on record?
**A.** The Potency was inconclusive: 0.465 µM [inhibitor, partial curve, poor fit].

**Q.** For COc1ccc(N2CC(C(=O)Nc3ccc4c(c3)OCCO4)CC2=O)cc1 (stereo not given), which Potency is on record?
**A.** Its Potency is “inactive”.

**Q.** Which Potency does the source give for CC(=O)c1ccc(NC(=O)CCC(=O)N2CC(C)Oc3ccc(C)cc32)cc1 (stereo not given) here?
**A.** The Potency was “inactive”.

**Q.** For CC(C)C(=O)Nc1ccc(C(=O)N/N=C/c2cc(Br)cc(Br)c2O)cc1, which Potency is on record?
**A.** The Potency was inconclusive: 18.5 µM [inhibitor, single point].

**Q.** For COc1ccc(CN2C(=O)c3ccccc3C(/C=N\OCc3ccc(F)cc3)C2=O)cc1 (stereo not given), which Potency is on record?
**A.** Its Potency is inconclusive: 11.7 µM [inhibitor, partial curve, poor fit].

**Q.** For CCCCn1c(CCC(=O)O)ccc1-c1cccs1, which Potency is on record?
**A.** Its Potency is inconclusive: 10.4 µM [inhibitor, single point].

**Q.** With O=C(Cc1cccs1)N=Nc1c(O)[nH]c2ccccc12 as the compound, how does the Potency read?
**A.** The Potency was inconclusive: 0.522 µM [inhibitor, full curve, poor fit].

**Q.** With NC(=O)CC(NC(=O)Cc1cccc2ccccc12)c1ccc(NCC2CC2)c([N+](=O)[O-])c1 (stereo not given) as the compound, how does the Potency read?
**A.** The Potency was “inactive”.

**Q.** Which Potency does the source give for N/C(CS(=O)(=O)c1ccccc1)=N\OC(=O)c1ccc(F)cc1 here?
**A.** Its Potency is “inactive”.

**Q.** For CN(CCN1CCOCC1)C(=O)CC1C(=O)NCCN1Cc1ccccc1C(F)(F)F (stereo not given), which Potency is on record?
**A.** Its Potency is inconclusive: 18.5 µM [inhibitor, partial curve, poor fit].

**Q.** With CCCCN(C)CCN1C(=O)C2C(C(=O)Nc3ccc(OC)cc3)C3C=CC2(O3)C1C(=O)NC1CCCCC1 (stereo not given) as the compound, how does the Potency read?
**A.** The Potency was inconclusive: 7.38 µM [inhibitor, partial curve, poor fit].

**Q.** Which Potency does the source give for O=C(CN1CCCCCC1)Nc1c(Cl)cc(Cl)cc1Cl here?
**A.** Its Potency is “inactive”.

**Q.** With CSc1nc2[nH]c3c(c2c2ncnn12)CCCC3 as the compound, how does the Potency read?
**A.** Its Potency is inconclusive: 1.47 µM [inhibitor, full curve].

**Q.** Which Potency does the source give for CN(Cc1ccccc1)c1nc(CN2CCOCC2)nc2scc(-c3ccccc3)c12 here?
**A.** Its Potency is inconclusive: 18.5 µM [inhibitor, single point].

**Q.** For CCSCc1nnc(SCC(=O)Nc2cccc(SC)c2)n1C, which Potency is on record?
**A.** The Potency was inconclusive: 18.5 µM [inhibitor, single point].

**Q.** With CCn1c(=O)c([N+](=O)[O-])c(N2CCSCC2)c2ccccc21 as the compound, how does the Potency read?
**A.** The Potency was inconclusive: 18.5 µM [inhibitor, single point].

**Q.** For Cc1ccc2c(c1)nnn2C1CCN(C(=O)c2ccccc2F)CC1, which Potency is on record?
**A.** Its Potency is “inactive”.

**Q.** For COc1ccc(NC(=O)CN(Cc2ccco2)Cc2ccco2)cc1S(=O)(=O)N1CCCCC1, which Potency is on record?
**A.** The Potency was “inactive”.

**Q.** Which Potency does the source give for COc1cc(CCCN[C@H](CN)Cc2ccccc2)cc(OC)c1OC here?
**A.** The Potency was inconclusive: 2.62 µM [inhibitor, single point].

**Q.** With COc1ccccc1C(=O)NCCC(=O)N1CCN(S(=O)(=O)c2cccc(Cl)c2)CC1 as the compound, how does the Potency read?
**A.** The Potency was inconclusive: 14.7 µM [inhibitor, partial curve, poor fit].

**Q.** For COC(=O)CSc1nnc(CNC(=O)c2cccs2)n1-c1cc(OC)ccc1OC, which Potency is on record?
**A.** Its Potency is inconclusive: 11.7 µM [inhibitor, partial curve, poor fit].

**Q.** Which Potency does the source give for CCc1ccc2c(c1)/C(=C/C(=O)c1cccs1)C(=O)N2 here?
**A.** The Potency was “inactive”.

**Q.** For O=C(NNC(=O)C1CC=CCC1)c1ccccc1Cl (stereo not given), which Potency is on record?
**A.** The Potency was “inactive”.

**Q.** With C=CCOc1c2ccc(C(=O)N(CC)c3ccc(OC)cc3)cc2nn1C as the compound, how does the Potency read?
**A.** Its Potency is inconclusive: 9.28 µM [inhibitor, single point].

**Q.** Which Potency does the source give for COC(=O)c1cc(NC(=O)COC(=O)C2CCC2)cc(C(=O)OC)c1 here?
**A.** Its Potency is “inactive”.

**Q.** For O=C(CCNC(=O)c1ccco1)Nc1ccccc1, which Potency is on record?
**A.** Its Potency is inconclusive: 0.0738 µM [inhibitor, full curve, poor fit].

**Q.** With O=C(Nc1ccccc1)C1=C[C@@H](c2csc3ccccc23)C[C@@H](OCc2ccc(CO)cc2)O1 as the compound, how does the Potency read?
**A.** Its Potency is active: 9.28 µM.

**Q.** Which Potency does the source give for CC(=O)c1c(Nc2ccc3c(c2)OCCO3)oc(C)cc1=O here?
**A.** The Potency was inconclusive: 10.4 µM [inhibitor, single point].

**Q.** Which Potency does the source give for C#CCOCCOCCOCCNc1nc(N2CCN(C(=O)CCCCCCCCCCNC(=O)[C@H]([C@@H](C)CC)n3cc(CCCCN=C(N)N)nn3)CC2)nc(N2CCN(C(=O)CCCCCCCCCCNC(=O)[C@H](CCCN=C(N)N)n3cc(C[C@@H](C)CC)nn3)CC2)n1 here?
**A.** The Potency was active: 5.22 µM.

**Q.** With CC1=C(CCN2CCN(C(C)C)C(CCO)C2)C(C)(C)CCC1 (stereo not given) as the compound, how does the Potency read?
**A.** The Potency was inconclusive: 9.28 µM [inhibitor, single point].

**Q.** For Nn1cnnc1SCC(=O)N(C1CCCCC1)C1CCCCC1, which Potency is on record?
**A.** Its Potency is “inactive”.

**Q.** With Cc1ccc(C2=Nc3c(ccc4ccccc34)C(c3ccncc3)=NN2)cc1 as the compound, how does the Potency read?
**A.** The Potency was inconclusive: 18.5 µM [inhibitor, single point].

**Q.** Which Potency does the source give for Cc1ccsc1C(=O)NNC(=O)C1CC=CCC1C(=O)O (stereo not given) here?
**A.** The Potency was “inactive”.

**Q.** For Cc1occc1C(=O)NNC(=O)COc1ccc(Br)cc1Br, which Potency is on record?
**A.** Its Potency is “inactive”.

**Q.** For CCCN1C(=O)c2cc(C(=O)Nc3ccccc3CC)ccc2C1O (stereo not given), which Potency is on record?
**A.** Its Potency is active: 10.4 µM.

**Q.** Which Potency does the source give for O=C(CCCCCn1c(=S)[nH]c2ccc(N3CCOCC3)cc2c1=O)NCc1ccccc1Cl here?
**A.** Its Potency is inconclusive: 0.0828 µM [inhibitor, partial curve, poor fit].

**Q.** With Cc1ccc(Cl)cc1N1CCN(Cc2nnnn2C2CCCCC2)CC1 as the compound, how does the Potency read?
**A.** The Potency was inconclusive: 4.15 µM [inhibitor, single point].

**Q.** Which Potency does the source give for CCOc1ccc(C2C(C(=O)c3cccs3)=C(O)C(=O)N2Cc2cccnc2)cc1 (stereo not given) here?
**A.** The Potency was “inactive”.

**Q.** With CC(=O)Nc1ccc(S(=O)(=O)N2CCC(C(=O)O)CC2)cc1 as the compound, how does the Potency read?
**A.** The Potency was inconclusive: 0.185 µM [inhibitor, partial curve, poor fit].

**Q.** Which Potency does the source give for CNC(C)C#Cc1c(-c2cc(OC)c(OC)c(OC)c2)noc1C (stereo not given) here?
**A.** Its Potency is active: 14.7 µM.

**Q.** Which Potency does the source give for CSc1nc2cc(C)nn2c(-c2ccccc2)c1C#N here?
**A.** The Potency was “inactive”.

**Q.** With COc1ccc2[nH]c(=O)c(CN(C(=O)C3CCCO3)c3ccc(C)c(C)c3)cc2c1 (stereo not given) as the compound, how does the Potency read?
**A.** The Potency was “inactive”.

**Q.** Which Potency does the source give for Cc1cccc(-c2noc(CN(C(=O)CCc3ccccc3)C(C)C)n2)c1 here?
**A.** The Potency was “inactive”.

**Q.** For CCN(CC)CCNC(=O)COc1ccc(OC)cc1, which Potency is on record?
**A.** The Potency was “inactive”.

**Q.** With O=C(NCc1ccco1)c1ccc2c(c1)N(Cc1ccccc1)C(=O)CS2=O (stereo not given) as the compound, how does the Potency read?
**A.** Its Potency is inconclusive: 18.5 µM [inhibitor, single point].

**Q.** For Cn1c(SCC(=O)CC(=O)Nc2ccccc2)nnc1-c1ccc(O)cc1, which Potency is on record?
**A.** The Potency was active: 11.7 µM.

**Q.** For CCOC(=O)CN1C(=O)C(Sc2n[nH]c(-c3ccc(O)cc3)n2)CCc2ccccc21 (stereo not given), which Potency is on record?
**A.** The Potency was inconclusive: 9.28 µM [inhibitor, partial curve, poor fit].

**Q.** With CCOC(=O)c1sc2ncn(/N=C/c3ccccn3)c(=O)c2c1C as the compound, how does the Potency read?
**A.** The Potency was active: 6.57 µM.

**Q.** With CC1(C)CC(=O)C(C=Nc2ccc3[nH]ncc3c2)=C(O)C1 as the compound, how does the Potency read?
**A.** The Potency was active: 10.4 µM.

**Q.** For COc1ccc(/C=C/c2c(-c3ccc(OC)cc3)sc3ccc(N4CCOCC4)cc23)cc1, which Potency is on record?
**A.** The Potency was inconclusive: 9.28 µM [inhibitor, partial curve].

**Q.** Which Potency does the source give for Cc1ccc(CNC(=O)CSc2n[nH]c(N)n2)cc1 here?
**A.** Its Potency is inconclusive: 6.57 µM [inhibitor, partial curve].

**Q.** Which Potency does the source give for Cc1nnc(NC(=O)CN2CCN(Cc3ccccc3)CC2)s1 here?
**A.** The Potency was “inactive”.

**Q.** With CC(=O)N(C1=C(N)C(=O)c2ccccc2C1=O)C(C)C as the compound, how does the Potency read?
**A.** The Potency was active: 9.28 µM.

**Q.** For O=C(/C=C/c1ccccc1)OCCN=C1NS(=O)(=O)c2ccccc21, which Potency is on record?
**A.** The Potency was inconclusive: 11.7 µM [inhibitor, single point].
